Experimental data published in publication PMC4669837.
These are yes or no findings as the source states them, for the method shown. In cells and extracts the contact can be indirect. Some entries that bind do so weakly or less than the wild type.

Amino acid sequences for entries named in this document (tags omitted).
UniProt Q14790: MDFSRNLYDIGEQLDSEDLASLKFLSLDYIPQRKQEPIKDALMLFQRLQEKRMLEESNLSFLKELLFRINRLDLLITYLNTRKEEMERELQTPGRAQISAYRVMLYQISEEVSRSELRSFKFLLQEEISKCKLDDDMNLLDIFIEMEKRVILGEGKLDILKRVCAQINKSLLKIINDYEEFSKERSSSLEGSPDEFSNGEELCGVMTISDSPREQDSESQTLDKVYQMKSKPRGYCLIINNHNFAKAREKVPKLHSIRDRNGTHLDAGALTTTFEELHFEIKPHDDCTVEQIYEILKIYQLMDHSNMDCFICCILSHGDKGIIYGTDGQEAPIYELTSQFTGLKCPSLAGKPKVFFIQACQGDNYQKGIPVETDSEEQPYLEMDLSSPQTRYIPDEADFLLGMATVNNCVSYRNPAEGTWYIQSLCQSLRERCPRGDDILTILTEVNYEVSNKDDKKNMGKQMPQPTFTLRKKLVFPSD
UniProt Q9Y572: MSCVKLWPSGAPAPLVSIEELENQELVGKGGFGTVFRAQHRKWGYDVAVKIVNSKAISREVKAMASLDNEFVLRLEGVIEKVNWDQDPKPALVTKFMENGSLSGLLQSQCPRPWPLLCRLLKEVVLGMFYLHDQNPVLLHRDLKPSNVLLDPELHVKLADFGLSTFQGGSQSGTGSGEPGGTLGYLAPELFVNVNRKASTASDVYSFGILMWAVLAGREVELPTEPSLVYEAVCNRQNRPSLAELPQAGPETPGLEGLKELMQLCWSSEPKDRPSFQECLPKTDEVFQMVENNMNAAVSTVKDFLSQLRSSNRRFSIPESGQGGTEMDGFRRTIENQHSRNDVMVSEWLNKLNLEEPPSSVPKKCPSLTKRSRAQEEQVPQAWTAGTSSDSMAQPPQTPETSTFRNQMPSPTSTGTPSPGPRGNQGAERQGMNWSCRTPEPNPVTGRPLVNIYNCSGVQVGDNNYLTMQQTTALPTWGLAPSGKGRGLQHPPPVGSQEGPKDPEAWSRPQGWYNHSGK

Target: caspase-8 (human (endogenous in HT29)) (UniProt Q14790)
Experiment: co-IP; HT29 cells treated with TNFα or Flag-TNFα, BV6 and zVAD (TBZ), also after siRNA knockdowns (c-IAP1, c-IAP2, XIAP, HOIP, HOIL1, sharpin); lysates or supernatants of the Flag immunoprecipitation immunoprecipitated with caspase-8 antibody on protein-A/G beads overnight at 4 °C; western blot

binding: binds
Substance: receptor-interacting protein kinase 3 (from UniProt Q9Y572 1-518)
